Assay results as given in the supplement of paper PMC12889115.
Some of the results follow. These are raw signals, not scaled to a control.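 Primary screen: polymyxin B was added at a level permeabilizing Salmonella outer membranes while sparing inner membranes. DMSO wells, both with and without polymyxin B, established maximum growth. Plate-to-plate variation meant each plate was ranked on its own, and the lowest-OD600 compounds were selected as hits.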

Test system: Salmonella enterica serovar Typhimurium SL1344
Assay: bacterial growth OD600 after 18 h with compound and polymyxin B; higher = more bacterial growth (less inhibition)
Settings: 50 µM, Mueller-Hinton broth

Compound | bacterial growth OD600 (polymyxin B 0.75 µg/mL) | bacterial growth OD600 (polymyxin B 1 µg/mL)
COCCN1C(=O)NC(Cc2ccc(F)cc2)(C2CCN(C(=O)CCc3ccc(C)cc3)CC2)C1=O (stereo not given) | 0.856 | –
CCOC(=O)C1(Cc2ccc(F)cc2)CCCN(C(=O)c2ccc(C)s2)C1 (stereo not given) | – | 1.03
CCN1CCN(C2(C(=O)NCCCC3CCCC3)Cc3ccccc3C2)CC1 | 0.005 | –
CSc1ccccc1OCc1cc(C(=O)N(C)Cc2c(C)n[nH]c2C)no1 | – | 1.06
COc1ccc(OC2CCN(C(=O)C3CC3)CC2)c(C(=O)NCCn2ccnc2C)c1 | – | 1.22
CCOC(=O)C1CCN(C(=O)c2cc(Cn3nc(C)cc3C)[nH]n2)CC1 | – | 1.24
Cc1ccn(CC(=O)NCCN2Cc3ccccc3OC(c3ccsc3)C2)n1 (stereo not given) | 0.736 | –
CCC(O)C1CCN(C(=O)c2cn(C/C=C/c3ccccc3)nn2)CC1 (stereo not given) | – | 0.82
CC[C@H](C)[C@H](NC(=O)c1ccc(OC2CCN(C(C)=O)CC2)c(OC)c1)C(=O)OC | – | 0.92
COCCN(CC1CCN(Cc2ccccc2OC)CC1)C(=O)C1CC=CCC1 (stereo not given) | – | 0.909
O=C(CCC1CCN(C(=O)NC2CCCCC2)CC1)Nc1ccccc1 | – | 0.909
COCC(=O)Nc1cc(C(=O)N2CCCCC2c2nccs2)cc2nc(-c3cccnc3)n(C)c12 (stereo not given) | 0.863 | –
c1csc(C2CCCN2c2nc3nonc3nc2NC2CCCC2)n1 (stereo not given) | – | 0.675
O=C(Cn1nnnc1CN1CCOCC1)N1CCN(C2CCc3ccccc3C2)CC1 (stereo not given) | – | 0.96
CCCN1CCC(NC2CC(=O)N(Cc3cccc(F)c3)C2)CC1 (stereo not given) | – | 0.824
Cc1ccc(NC2CCCN(C(=O)c3cn4ccsc4n3)C2)cc1C (stereo not given) | – | 1.32
Cc1ccc(SC2CCN(Cc3nc(Cc4ccccc4F)no3)CC2)cc1 | – | 0.828
CCOC(=O)C1(Cc2ccccc2)CCN(Cc2cccc(F)c2F)CC1 | – | 0.79
CCc1ccc(CN(C)c2ccc(-c3nc(COC)no3)cn2)nc1 | 0.764 | –
OCCOc1ccccc1CN1CCCC(Nc2ccc(F)c(F)c2)C1 (stereo not given) | – | 0.995

Some of these compounds in order of formula weight, low to high:
Compound | bacterial growth OD600 (polymyxin B 0.75 µg/mL) | bacterial growth OD600 (polymyxin B 1 µg/mL)
CSc1ccccc1OCc1cc(C(=O)N(C)Cc2c(C)n[nH]c2C)no1 | – | 1.06
Cc1ccn(CC(=O)NCCN2Cc3ccccc3OC(c3ccsc3)C2)n1 (stereo not given) | 0.736 | –
Cc1ccc(SC2CCN(Cc3nc(Cc4ccccc4F)no3)CC2)cc1 | – | 0.828
